Results are given in words; binding and its absence hold for the method and conditions named. Some results given as binding are weak or reduced against the parent protein; the word gives no strength.
B1: keratin 5 (aa 349-475) (protein, UniProt P13647 349-475, looked up)
chain: IANRSRTEAESWYQTKYEELQQTAGRHGDDLRNTKHEISEMNRMIQRLRAEIDNVKKQCANLQNAIADAEQRGELALKDARNKLAELEEALQKAKQDMARLLREYQELMNTKLALDVEIATYRKLLE
B2: Hook2 (amino acids 132-428) (protein, UniProt Q96ED9 132-428, looked up)
chain: IQRIMTLEESVQHVVMEAIQELMTKDTPDSLSPETYGNFDSQSRRYYFLSEEAEEGDELQQRCLDLERQLMLLSEEKQSLAQENAGLRERMGRPEGEGTPGLTAKKLLLLQSQLEQLQEENFRLESGREDERLRCAELEREVAELQHRNQALTSLAQEAQALKDEMDELRQSSERAGQLEATLTSCRRRLGELRELRRQVRQLEERNAGHAERTRQLEDELRRAGSLRAQLEAQRRQVQELQGQRQEEAMKAEKWLFECRNLEEKYESVTKEKERLLAERDSLREANEELRCAQLQP
B3: keratin 5 (aa 384-475) (protein, UniProt P13647 384-475, looked up)
chain: HEISEMNRMIQRLRAEIDNVKKQCANLQNAIADAEQRGELALKDARNKLAELEEALQKAKQDMARLLREYQELMNTKLALDVEIATYRKLLE
B4: PIBF1 (aa 392-758) (protein, UniProt Q8WXW3 392-757, looked up)
chain: IDQLRNASREMYERENRNLREARDNAVAEKERAVMAEKDALEKHDQLLDRYRELQLSTESKVTEFLHQSKLKSFESERVQLLQEETARNLTQCQLECEKYQKKLEVLTKEFYSLQASSEKRITELQAQNSEHQARLDIYEKLEKELDEIIMQTAEIENEDEAERVLFSYGYGANVPTTAKRRLKQSVHLARRVLQLEKQNSLILKDLEHRKDQVTQLSQELDRANSLLNQTQQPYRYLIESVRQRDSKIDSLTESIAQLEKDVSNLNKEKSALLQTKNQMALDLEQLLNHREELAAMKQILVKMHSKHSENSLLLTKTEPKHVTENQKSKTLNVPKEHEDNIFTPKPTLFTKKEAPEWSKKQKMKT
B5: keratin 5 (aa 347-485) (protein, UniProt P13647 347-485, looked up)
chain: EEIANRSRTEAESWYQTKYEELQQTAGRHGDDLRNTKHEISEMNRMIQRLRAEIDNVKKQCANLQNAIADAEQRGELALKDARNKLAELEEALQKAKQDMARLLREYQELMNTKLALDVEIATYRKLLEGEECRLSGEG
B6: keratin 5 (aa 9-171) (protein, UniProt P13647 9-171, looked up)
chain: FRSGGSRSFSTASAITPSVSRTSFTSVSRSGGGGGGGFGRVSLAGACGVGGYGSRSLYNLGGSKRISISTSGGSFRNRFGAGAGGGYGFGGGAGSGFGFGGGAGGGFGLGGGAGFGGGFGGPGFPVCPPGGIQEVTVNQSLLTPLNLQIDPSIQRVRTEEREQ
B7: keratin 5 (aa 324-446) (protein, UniProt P13647 324-446, looked up)
chain: VLSMDNNRNLDLDSIIAEVKAQYEEIANRSRTEAESWYQTKYEELQQTAGRHGDDLRNTKHEISEMNRMIQRLRAEIDNVKKQCANLQNAIADAEQRGELALKDARNKLAELEEALQKAKQDM
B8: keratin 5 (aa 379-452) (protein, UniProt P13647 379-452, looked up)
chain: LRNTKHEISEMNRMIQRLRAEIDNVKKQCANLQNAIADAEQRGELALKDARNKLAELEEALQKAKQDMARLLRE
B9: keratin 5 (aa 335-473) (protein, UniProt P13647 335-473, looked up)
chain: LDSIIAEVKAQYEEIANRSRTEAESWYQTKYEELQQTAGRHGDDLRNTKHEISEMNRMIQRLRAEIDNVKKQCANLQNAIADAEQRGELALKDARNKLAELEEALQKAKQDMARLLREYQELMNTKLALDVEIATYRKL

By UniProt entry, the sequences of proteins in these tests, tags left out. Where a name states a change or a piece, a line headed by the entry shows the natural chain unless it says otherwise. Residues count along the entry.
UniProt Q99816: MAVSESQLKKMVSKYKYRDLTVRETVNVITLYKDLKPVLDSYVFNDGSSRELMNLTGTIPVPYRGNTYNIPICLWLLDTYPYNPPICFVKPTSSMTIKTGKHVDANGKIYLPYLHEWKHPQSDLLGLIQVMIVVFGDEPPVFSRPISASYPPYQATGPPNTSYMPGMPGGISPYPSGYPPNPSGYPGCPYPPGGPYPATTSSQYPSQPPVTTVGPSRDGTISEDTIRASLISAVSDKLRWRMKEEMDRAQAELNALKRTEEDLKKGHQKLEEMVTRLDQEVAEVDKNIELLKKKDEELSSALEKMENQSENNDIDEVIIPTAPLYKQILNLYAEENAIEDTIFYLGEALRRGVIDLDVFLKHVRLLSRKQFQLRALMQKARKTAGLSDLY
Tsg101 (aa 1-157): residues 1-157 of Q99816
Tsg101 (aa 12-326): residues 12-326 of Q99816
Tsg101 (aa 240-391): residues 240-390 of Q99816

Tests used:
[1] = biological target: Tsg101 (aa 240-391) (human) (UniProt Q99816); experiment: yeast two-hybrid
[2] = biological target: Tsg101 (aa 240-391) (human) (UniProt Q99816); experiment: yeast two-hybrid, breast and prostate cancer library, bait printed as Tsg101 240-390
[3] = biological target: Tsg101 (aa 12-326) (human) (UniProt Q99816); experiment: yeast two-hybrid, spleen library
[4] = biological target: Tsg101 (aa 12-326) (human) (UniProt Q99816); experiment: yeast two-hybrid
[5] = biological target: Tsg101 (aa 1-157) (human) (UniProt Q99816); experiment: yeast two-hybrid

| Binder | binding [1] | also measured |
| --- | --- | --- |
| B1 | binds |  |
| B2 |  | binding [2]: binds |
| B3 | binds |  |
| B4 |  | binding [3]: binds; binding [4]: binds |
| B5 | binds |  |
| B6 |  | binding [5]: binds |
| B7 | binds |  |
| B8 | binds |  |
| B9 | binds |  |
